The other results are listed elsewhere or left out.
B1: il2ra_site1_1z92_sap_25_mot_HHH_b2_03816_af2_000000009_0001_40_54_H_._HHH_b1_06008_0001_0001000050_0000001_0_0001_af2pred_0001_af2pred (protein)
chain: DEEAEEVVEQAEEDPELRKRLEEYLEEVAKLPPRNAKVYLKMLLKKAKEGDPAALELLLSLFEEG
B2: il2ra_site1_3nfp_sap_12_mot_HHH_b2_07963_000000178_0001_1_20_H_._85c313cd81705ef13366c17583bb23ef_0001_0001_0000300011_0000001_0_0001 (protein)
chain: DDEESLKRSVELAAEVAGVPSVEVEEHNGKYHVTIEGDDIQARHVAKLIERAAKAFNIDLEVEVE
B3: il2ra_site2_3nfp_normal_mot_HHH_b2_06150_000000217_0001_39_53_H_._HHH_b2_06562_af2_0001_0000100007_0000001_1 (protein)
chain: SSSSSEEEEEVRELLKQAERAREEGDEEELRRLRARAVEIAYEARDPRLFFLVAEVLFKLASSSS
B4: il2ra_site1_2b5i_sap_13_mot_HHH_b1_03378_af2_000000136_0001_23_39_H_._b8b0fbdce6c3aad50316cb256bd66e7b_0001_1_0001_0000100005_0000001_0_0001_af2pred_dldesign_0_ … (protein)
chain: SSSSSPVSKKIFELIKEAEKLKKEGKEEEAKKLLEEALKLAQENNRPSLARFVQAMLDQLESSSS
B5: il2ra_site2_3nfp_normal_mot_HHH_b2_07083_af2_000000083_0001_42_56_H_._HHH_b2_00762_0001_0000200003_0000001_0_af2pred_0001_af2pred (protein)
chain: SSSSDTEERVEKLLEEARRYREEGDEEEVQRLLAEASEVAFENNNPELLLLIARVLLELLGSSSS
B6: il2ra_site2_3nfp_sap_22_mot_HHH_b2_02437_000000052_0001_42_56_H_._HHH_b1_05931_af2_0001_0000400011_0000001_0_0001 (protein)
chain: SSSSNKAEEYVRIVLAVARLAAKAGDPEAAEKSLRLALSAARQNGNEELEELLEELLKELSSSSS
B7: il2ra_site2_3nfp_normal_mot_HHH_b2_06150_000000217_0001_39_53_H_._ef5a302c84959cb026c21f894a3b1351_0001_0001_0000200021_0000001_0_af2pred_0001_1_af2pred_swapped (protein)
chain: SHESLEALEKVHRRNPEVSAALLALLAEAFRKDPEIRKELLELIRELVERGVPPEEILKLVEEVT
B8: il2ra_site1_1z92_normal_mot_934a834d9b8b770824478def2ff2f329_0001_af2_000000088_0001_15_30_H_._83efa5f199d74a44323d7a465a177682_0001_af2_0001_0000100004_0000001 … (protein)
chain: SLEEEIEQALKEAGVPPSVIRAIKRIIREAEEHGIPPEAIKRDVLKFLEFYNEELAERVEELLKK
B9: il2ra_site2_2erj_normal_mot_HHH_b2_05804_000000098_0001_44_58_H_._HHH_b1_07085_0001_0000200012_0000001_0 (protein)
chain: SSSSSSEEEFWERVARLLAELSHVDEEEAEELLEEARRLAEELGSPFLERYVEFARRAHSSSSSS
B10: il2ra_site2_2erj_normal_mot_HHH_b1_03107_000000098_0001_39_52_H_._HHH_b1_03170_0002_0000300004_0000001_0 (protein)
chain: SSSSSEYEEVARLQAEVLELFKEGDPEEAERLLEEILEKLRELGDETLIRYVEFALRDIRRSSSS
B11: il2ra_site2_2erj_sap_33_mot_8abaa092650c7ec0dcd26c08d75eddca_0001_1_000000067_0001_33_49_H_._HHH_b2_05321_af2_0001_0000100005_0000001_0_0001 (protein)
chain: SSSSSEELHRLFELANLLMHLVARGDREEFEHVLEEAEELAERANSDNAKEFLERLKKELSSSSS
B12: il2ra_site2_2erj_normal_mot_HHH_b1_03107_000000098_0001_39_52_H_._HHH_b2_08306_0001_0000100003_0000001_0 (protein)
chain: SSSSSSFKELWEAVAELLAKAAHIKDEEEVERLLEEAKRIAEELGNEILERYIEYARRDHSSSSS
B13: il2ra_site2_2erj_normal_mot_HHH_b1_02968_000000142_0001_22_39_H_._HHH_b2_03682_af2_0001_0000100008_0000001_0 (protein)
chain: SSSSSDYREEVRELLEEAEEAYENGDLELVYRLAVEAARVASENQDEELQEEIWRVVEELSSSSS
B14: il2ra_site2_3nfp_sap_24_mot_HHH_b2_02437_000000052_0001_42_56_H_._HHH_b2_08341_0001_0000200012_0000001_0_0001_af2pred_0001_1_af2pred_swapped (protein)
chain: SSSSSSSEEEEQIEELLERAEHTEDEAKRLILLAEALLLALEARDPELERRVKELARRLSSSSSS
B15: il2ra_site2_2erj_sap_21_mot_HHH_b2_02303_000000050_0001_43_56_H_._HHH_b1_05172_0001_0000200005_0000001_0_0001_af2pred_0001_1_af2pred_swapped (protein)
chain: SSSSSSDLVKAFVRRLLEEAEKIPDPEERKRWLKLAELAARRWNDEEAEEEVERVQEELGSSSSS
B16: il2ra_site1_2b5i_normal_mot_22370d59370c406a0c205a431f537cfa_0001_af2_000000027_0001_1_31_H_._HHH_b2_03062_0001_0000200012_0000001_0 (protein)
chain: SSSSDNELVRAATRIVWKLRRELNLSREEAQLLHRVAAELVDEGVSPEELEEILREYAEEISSSS
B17: il2ra_site2_3nfp_sap_21_mot_HHH_b1_04032_000000208_0001_43_56_H_._HHH_b2_05536_af2_0001_0000100001_0000001_0_0001_af2pred_0001_af2pred (protein)
chain: SSSSSSEEVEELLEQAKELYKRGDEEEVEEVLLKAASLAAELNDFELFAEVSALFEKLLSSSSSS
B18: il2ra_site2_2erj_sap_36_mot_HHH_b1_08325_af2_000000089_0001_23_40_H_._HHH_b2_06241_af2_0001_0000700012_0000001_0_0001 (protein)
chain: SSSSSEEEEEVIRLIAEAIELAHEGDEEEARELLEEALRIAREINNETLREYIERALKHLKSSSS
B19: il2ra_site2_3nfp_sap_24_mot_ems_3hM_287_af2_000000177_0001_46_64_H_._HHH_b1_01176_af2_0001_0000700010_0000001_0_0001 (protein)
chain: SSSSDEAEEYIRAALALLERAIELGDEEAFEEHFELVEKAIKDNNNEELEEILKELQKKFESSSS

target: il2ra, P01589; assay: yeast display titration

Apparent Kd, inactive:
B1 > 968 nM
B2 no binding seen
B3 no binding seen
B4 > 664 nM
B5 no binding seen
B6 no binding seen
B7 no binding seen
B8 no binding seen
B9 no binding seen
B10 no binding seen
B11 no binding seen
B12 no binding seen
B13 no binding seen
B14 no binding seen
B15 no binding seen
B16 no binding seen
B17 no binding seen
B18 no binding seen
B19 no binding seen

2 entries drawn at random from the list so far:
Apparent Kd, inactive:
B11 no binding seen
B14 no binding seen

Source: PMC10163288
